Here are results for one substance from publication doi:10.1101/2025.05.28.656646.

Protein sequences, listed by entry. Tags and fused reporters are not part of them.
UniProt P08758: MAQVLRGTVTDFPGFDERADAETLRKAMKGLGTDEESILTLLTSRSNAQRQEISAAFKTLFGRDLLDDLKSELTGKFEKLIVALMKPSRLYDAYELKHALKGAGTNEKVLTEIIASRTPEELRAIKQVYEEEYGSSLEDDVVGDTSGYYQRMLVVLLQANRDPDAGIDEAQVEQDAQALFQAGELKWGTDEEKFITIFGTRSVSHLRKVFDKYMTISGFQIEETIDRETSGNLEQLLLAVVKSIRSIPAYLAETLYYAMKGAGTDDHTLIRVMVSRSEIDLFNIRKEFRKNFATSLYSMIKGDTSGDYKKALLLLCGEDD

This experiment addresses Myc-tagged WT-PKCα (human) (UniProt P17252). Briefly: affinity purification with mass spectrometry.

No constants are given. Whether binding was seen depends on the method and setting. In cells and extracts the contact can be indirect. These calls come from enrichment with a bait or labelling near it, and not all partners need be listed.

For Annexin V (from UniProt P08758 1-320), the binding result was “binds”.
